Results are given in words; binding and its absence hold for the method and conditions named. Binding seen in cells or lysates may run through a third protein. Here binding means that the protein was enriched with, or labelled near, the bait; the list need not be complete.
B1: Map3k13 (protein, UniProt Q1HKZ5 1-959)
chain: MANPQEHLSCSSLPHLPLTENKTSGGRNELAAMGNHPSPKLPEDPQERGAIQSELMEITGSPISTTVLTSVSEDSRGQFENSVLQLREQDESEMTLSLGNSNTVDGENTNGPEDIKIQFSRSGSGSGGFLEGLFGCLRPVWNIIGKAYSTDYKLQQQDTWEVPFEEISELQWLGSGAQGAVFLGKFRAEEVAIKKVREQNETDIKHLRKLKHPNIIAFKGVCTQAPCYCIIMEYCAHGQLYEVLRAGRKITPRLLVDWSTGIASGMNYLHLHKIIHRDLKSPNVLVTHTDAVKISDFGTSKELSDKSTKMSFAGTVAWMAPEVIRNEPVSEKVDIWSFGVVLWELLTGEIPYKDVDSSAIIWGVGSNSLHLPVPSTCPDGFKILMKQTWQSKPRNRPSFRQTLMHLDIASADVLATPQETYFKSQAEWREEVKKHFEKIKSEGTCIHRLDEELIRRRREELRHALDIREHYERKLERANNLYMELSAIMLQLEMREKELLKREQAVEKKYPGTYKRHPVRPIIHPNAMEKLMKRKGVPHKAGVQTKRPDLLRSEGIPSTEAVPTASPLSGSPKMSTASSRSRYRSKPRHRRGNSRGSHSDFAAILKTQPAQENSPHPTYMHHTQAQCASVHQHNPLQQQYQQIPPAQPQSRHPRLNAHGQDIATCANNLRYFGPAAALRSPLSNHAQRQMPGSSPDLISTAMAADWRNSELDQDQVGPWGCCQAEPYDPCFQCRPEHSGSLDVPTTEPVGRSPDLSSSPAHNPLSGNAQGSERTGANGFSGCQSGISHQFTPPMLPQKTRPLQKSGDDSSEEEGEVDSEVEFPRRQRPHRCISSYQSYSTFSSENFSVSDGEEGNTSDHSNSPDESANRRQDRLAETLDDLLSQTPEAPIEISSHSDGLSDKECAVRRVKTQMSLGKLCAEERGYENPVQFGDSDCDSSEGECSDATVRTSKNYSSATW
B2: cGMP-dependent protein kinase 2 (protein, UniProt Q61410 1-762)
chain: MGNGSVKPKHAKHPDGHSGNLSNEALRSKVLELERELRRKDAELQEREYHLKELREQLAKQTVAIAELTEELQSKCIQLNKLQDVIHVQGGSPLQASPDKVPLDVHRKTSGLVSLHSRRGAKAGVSAEPTTRTYDLNKPPEFSFEKARVRKDSSEKKLITDALNKNQFLKRLDPQQIKDMVECMYGEKLSTGSYVIKQGEPGNHIFVLAEGRLEVFQGEKLLSSIPMWTTFGELAILYNCTRTASVKAITNVKTWALDREVFQNIMRRTAQARDEEYRNFLRSVSLLKNLPEDKLTKIIDCLEVEYYDKGDYIIREGEEGSTFFILAKGKVKVTQSTEGHDQPQLIKTLQKGEYFGEKALISDDVRSANIIAEENDVACLVIDRETFNQTVGTFDELQKYLEGYVATLNRDDEKRHAKRSMSSWKLSKALSLEMIQLKEKVARFSSTSPFQNLEIIATLGVGGFGRVELVKVKNENVAFAMKCIRKKHIVDTKQQEHVYSEKRILEELCSPFIVKLYRTFKDNKYVYMLLEACLGGELWSILRDRGSFDEPTSKFCVACVTEAFDYLHLLGIIYRDLKPENLILDADGYLKLVDFGFAKKIGSGQKTWTFCGTPEYVAPEVILNKGHDFSVDFWSLGILVYELLTGNPPFSGIDQMMTYNLILKGIEKMDFPRKITRRPEDLIRRLCRQNPTERLGNLKNGINDIKKHRWLNGFNWEGLKARSLPSPLRRELSGPIDHSYFDKYPPEKGVPPDEMSGWDKDF
B3: flotillin-1 (protein, UniProt O08917 1-428)
chain: MFFTCGPNEAMVVSGFCRSPPVMVAGGRVFVLPCIQQIQRISLNTLTLNVKSEKVYTRHGVPISVTGIAQVKIQGQNKEMLAAACQMFLGKTEAEIAHIALETLEGHQRAIMAHMTVEEIYKDRQKFSEQVFKVASSDLVNMGISVVSYTLKDIHDDQDYLHSLGKARTAQVQKDARIGEAEAKRDAGIREAKAKQEKVSAQCLSEIEMAKAQRDYELKKATYDIEVNTRRAQADLAYQLQVAKTKQQIEEQRVQVQVVERAQQVAVQEQEIARREKELEARVRKPAEAERYRLERLAEAEKAQLIMQAEAEAESVRMRGEAEAFAIGARARAEAEQMAKKAEAFQMYQEAAQLDMLLEKLPQVAEEISGPLTSANKITLVSSGSGTMGAAKVTGEVLDILSRLPESVERLTGVSISQVNHNKPLRTA
B4: 14-3-3 α/β (protein, UniProt Q9CQV8 1-246)
chain: MTMDKSELVQKAKLAEQAERYDDMAAAMKAVTEQGHELSNEERNLLSVAYKNVVGARRSSWRVISSIEQKTERNEKKQQMGKEYREKIEAELQDICNDVLELLDKYLILNATQAESKVFYLKMKGDYFRYLSEVASGENKQTTVSNSQQAYQEAFEISKKEMQPTHPIRLGLALNFSVFYYEILNSPEKACSLAKTAFDEAIAELDTLNEESYKDSTLIMQLLRDNLTLWTSENQGDEGDAGEGEN
B5: 14-3-3 γ (protein, UniProt P61982 1-247)
chain: MVDREQLVQKARLAEQAERYDDMAAAMKNVTELNEPLSNEERNLLSVAYKNVVGARRSSWRVISSIEQKTSADGNEKKIEMVRAYREKIEKELEAVCQDVLSLLDNYLIKNCSETQYESKVFYLKMKGDYYRYLAEVATGEKRATVVESSEKAYSEAHEISKEHMQPTHPIRLGLALNYSVFYYEIQNAPEQACHLAKTAFDDAIAELDTLNEDSYKDSTLIMQLLRDNLTLWTSDQQDDDGGEGNN
B6: Arhgap26 (protein, UniProt Q6ZQ82 1-814)
chain: MGLPALEFSDCCLDSPHFRETLKSHEAELDKTNKFIKELIKDGKSLISALKNLSSAKRKFADSLNEFKFQCIGDAETDDEMCIARSLQEFAAVLRNLEDERSRMIENASEVLITPLEKFRKEQIGAAREAKKKYDKETEKYCGTLEKHLNLSSKKKESQLQEADSQVDLVRQHFYEVSLEYVFKVQEVQERKMFEFVEPLLAFLQGLFTFYHHGYELAKDFGDFKTQLTISIQNTRNRFEGTRSEVESLMKKMKENPLEHKTISPYTMEGYLYVQEKRHFGTSWVKHYCTYQRDSKQITMVPFDQKSGGKGGEDESVTLKSCTRRKTDSIEKRFCFDVEAVDRPGVITMQALSEEDRRLWMEAMDGREPVYNSNRDSQSEGTAQLDSIGFSIIRKCIHAVETRGINEQGLYRIVGVNSRVQKLLSVLMDPKAASETETDICAEWEIKTVTSALKTYLRMLPGPLMMYQFQRSFIKAAKLENQETRVSEIHSLVHRLPEKNRQMLQLLMNHLANVANNHKQNLMTVANLGVVFGPTLLRPQEETVAAIMDIKFQNIVIEILIENHEKIFNTVPDVPLTNAQLHLSRKKSSDSKPPSCSKRPLTLFHAVPSTEKQEQRNSIINSSLESVSSSANSILNSSSSLQPNLNSSDSNLDVVKPSRPSSLPPNPSPTSPLSPSWPMFSAPSSPMPTSSTSSDSSPIRSVAGFVWFSVAAVVLSLAWSSLHAVFSLLVNFVPCHPNLHLLFDRPEEAVREDSSTPFRKAKALYACQAEHDSELSFTAGTVFDNVHPSQEPGWLEGTLNGKTGLIPENYVEFL
B7: Sorbs1 (protein, UniProt Q62417 1-1290)
chain: MSSECDVGSSKAVVNGLASGNHGPDKDMDPTKICTGKGTVTLRASSSYRGTPSSSPVSPQESPKHESKSGLEPEDPSADEWKLSSSADTNGNAQPSPLAAKGYRSVHPSLSADKPQGSPLLNEVSSSHIETDSQDFPPTSRPSSAYPSTTIVNPTIVLLQHNRDPASERRAGEQDPVPTPAELTSPGRASERRAKDASRRVVRSAQDLSDVSTDEVGIPLRNTERSKDWYKTMFKQIHKLNRDDDSDVHSPRYSFSDDTKSPLSVPRSKSEMNYIEGEKVVKRSATLPLPARSSSLKSSPERNDWEPLDKKVDTRKYRAEPKSIYEYQPGKSSVLTNEKMSRDISPEEIDLKNEPWYKFFSELEFGRPTNLEKDLSFCQAELEADLEKVETVNKSPSANSPQSSAVSPTPDITSEPPGYIYSSNFHAVKRESDGTPGGLASLENERQIYKSVLEGGDIPLQGLSGLKRPSSSASTKVDRKGGNAHMISSSSVHSRTFHTSNALGPGCKHKKPLSAAKACISEILPSKFKPRLSAPSALLQEQKSVLLPSEKAQSCENLCVSLNDSKRGLPLRVGGSIENLLMRSRRDYDSKSSSTMSLQEYGTSSRRPCPLSRKAGLHFSMFYRDMHQINRAGLSLGSISSSSVRDLASHFERSSLTLARGELGASQEGSEHIPKHTVSSRITAFEQLIQRSRSMPSLDFSGRLSKSPTPVLSRSGLTSARSAESLLESTKLRPREMDGMDSGGVYASPTCSNMADHALSFRSLVPSEPLSICSDELDHCSNVSNDSREGSGGSVHGDFPKHRLNKCKGTCPASYTRFTTIRKHEQQSSRQSDWRSDSRGDKNSLLRNIHLMSPLPFRLKKPLQQHPRQPPPSDSSESPAGQKADLPCHDPQDQPHSAGKPQVPTRLSSRHTMARLSHNSEPPLDRPAGLEDCTRAINNGNPVPYSDHGLDRNNNPQSELAAAHGDSESPRHFIPADYLESTEEFIRRRHDDKEKLLADQRRLKREQEEADIAARRHTGVIPTHHQFITNERFGDLLNIDDTAKRKSGLEMRPARAKFDFKAQTLKELPLQKGDVVYIYRQIDQNWYEGEHHGRVGIFPRTYIELLPPAEKAQPRKLAPVQVLEYGEAIAKFNFNGDTQVEMSFRKGERITLLRQVDENWYEGRIPGTSRQGIFPITYVDVLKRPLVKTPVDYIDLPYSSSPSRSATVSPQQPQAQQRRVTPDRSQPSLDLCSYQALYSYVPQNDDELELRDGDIVDVMEKCDDGWFVGTSRRTRQFGTFPGNYVKPLYL
B8: Tjp2 (protein, UniProt Q9Z0U1 1-1167)
chain: MEEVIWEQYTVTLQKDSKRGFGIAVSGGRDNPHFENGETSIVISDVLPGGPADGLLQENDRVVMVNGTPMEDVLHSFAVQQLRKSGKIAAIVVKRPRKVQVAPLQGSPPLSHDDRGFEVIEEFDGRSFRSGYSERSRHSSHDMLSHSWEGNRERGRPHQRTQSRERERSRGRSLERGLDQEDYGRSRERSRGRSLERGLDRDFVSRDHSRGRSIDRDYDRDYERSYHEAYEPDYGGGYSPSYDRRAHPETRYERSRSREHLRSRSPSPESRSRHEHKGQHDPDRPIGVLLTKSKANEEYGLRLGSQIFIKEMTRTGLATKDGNLHEGDIILKINGTVTENMSLTDARKLIEKSRGKLQLVVLRDSKQTLINIPALNDSDSEVEDISEIESNRSFSPEERRQQYSDQDYHSSTEKLKERPSSREETSGRLSRMGATPTPFKSTGDITAAGVTEASREPRYQEEGPVPQPRTAPRVFLRPSPEDEAIYGPNTKMVRFKKGDSVGLRLAGGNDVGIFVAGIQEGTSAEQEGLQEGDQILKVNTQDFRGLVREDAVLYLLEIPKGETVTILAQSRADVYRDILACGRGDSFFIRSHFECEKETPQSLAFTRGEVFRVVDTLYDGKLGHWLAVRIGNELEKGLIPNKSRAEQMASVQNAQRENAGDRADFWRMRGQRSSGGVKKNLRKSREDLAAAVSVSTKFPAYEKVLLREAGFKRPVVLFGPIADIAMERLATELPDLFQTAKTEPKDAGSEKSSGVVRLNTVRQIIEQDKHALLDVTPKAVDLLNYTQWFPIVIFFNPDSRQGVKTIRQRLSPTSNKSSRKLFDQANKLKKTCSHLFTATINVNSANDGWFGSLKDSIQQQQNEAVWVSEGKMEGMDDDAEDRMSYLTAMGADYLSCDSRLISDFEDTDGEGGAYTDNELEEPAEEPLVSSITRSSEPVQHEENIRKSSPEPRAQMRRAASRDQLRDASPPPAFKPEPPKARSQNREDSFDYSKSNLPATAGSEIPGGSTKGYPPPIAAKPAFGRPILKPSTPVPMPESEEVGESTEEQEDAPRSVLGRVKIFEKMDHKAKLQRMQELQEAQNARIEIAQKHPDIYAVPIKAPKPDAGLPPHMSSRPPEPQKAPSRLYQDTRGSYGSDPEEEEYRQQLAAHSKRGYYSQPSRYRDTEL

Amino acid sequences for entries named in this document (tags omitted).
UniProt Q60857: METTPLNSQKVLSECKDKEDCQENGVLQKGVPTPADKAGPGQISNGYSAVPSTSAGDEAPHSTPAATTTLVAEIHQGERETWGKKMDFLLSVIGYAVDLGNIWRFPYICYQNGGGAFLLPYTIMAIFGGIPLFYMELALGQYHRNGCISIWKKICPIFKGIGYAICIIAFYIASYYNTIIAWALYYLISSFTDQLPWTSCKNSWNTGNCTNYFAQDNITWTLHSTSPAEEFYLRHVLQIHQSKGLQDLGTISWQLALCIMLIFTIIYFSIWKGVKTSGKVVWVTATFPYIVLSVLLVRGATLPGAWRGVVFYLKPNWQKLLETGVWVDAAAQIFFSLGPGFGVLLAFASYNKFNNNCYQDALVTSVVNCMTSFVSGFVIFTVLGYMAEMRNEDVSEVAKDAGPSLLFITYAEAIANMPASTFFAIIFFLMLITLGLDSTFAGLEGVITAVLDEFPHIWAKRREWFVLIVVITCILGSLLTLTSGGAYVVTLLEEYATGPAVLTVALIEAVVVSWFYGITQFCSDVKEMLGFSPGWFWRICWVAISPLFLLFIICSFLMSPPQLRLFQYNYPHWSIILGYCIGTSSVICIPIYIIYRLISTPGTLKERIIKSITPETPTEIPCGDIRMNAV

Biological target: serotonin transporter, wildtype (WT SERT) (mouse (endogenous in midbrain synaptosomes)) (UniProt Q60857)
Experiment: affinity purification with mass spectrometry; SERT immunoprecipitated with C-terminal anti-SERT serum #48 cross-linked to protein A Dynabeads from midbrain synaptosomes (lysed in PBS + 0.7% DDM, 4°C) of WT, SERT Ala56 and SERT KO (negative control) mice; in-gel tryptic digestion, 8-step MudPIT LC-MS/MS; label-free quantification

Binder | binding
B1 | binds
B2 | binds
B3 | binds
B4 | binds
B5 | binds
B6 | binds
B7 | binds
B8 | binds

From publication PMC7295033
